Measured values published in article PMC4370877.
These are yes or no findings as the source states them, for the method shown. In cells and extracts the contact can be indirect. These calls come from enrichment with a bait or labelling near it, and not all partners need be listed. For some assays here: A no says only that the protein was not detected with the bait.

How the values were obtained:
[1] = biological target: recombinantly expressed Aap domain-A (rDomain-A) (S. epidermidis); assay: affinity purification with mass spectrometry; recombinant Aap domain (rDomain-B, or rDomain-A as control) coupled to a HiTrap NHS-activated Sepharose column; crude biofilm matrix preparation of S. epidermidis 1457 in PBS loaded, 30 min at room temperature; washed (PBS pH 7.4 by the results), eluted with Tris-HCl (pH 2 by the results); fractions by SDS-PAGE and silver staining, bands identified by ESI-MS; only the target purified
[2] = biological target: recombinantly expressed Aap domain-B (rDomain-B) (S. epidermidis); assay: as above

B1: S. epidermidis major Autolysin AtlE, from biofilm matrix (protein, UniProt Q5HQB9 30-1335)
chain: AEQPQNQSNHKNVLDDQTALKQAEKAKSEVTQSTTNVSGTQTYQDPTQVQPKQDTQSTTYDASLDEMSTYNEISSNQKQQSLSTDDANQNQTNSVTKNQQEETNDLTQEDKTSTDTNQLQETQSVAKENEKDLGANANNEQQDKKMTASQPSENQAIETQTASNDNESQQKSQQVTSEQNETATPKVSNTNASGYNFDYDDEDDDSSTDHLEPISLNNVNATSKQTTSYKYKEPAQRVTTNTVKKETASNQATIDTKQFTPFSATAQPRTVYSVSSQKTSSLPKYTPKVNSSINNYIRKKNMKAPRIEEDYTSYFPKYGYRNGVGRPEGIVVHDTANDNSTIDGEIAFMKRNYTNAFVHAFVDGNRIIETAPTDYLSWGAGPYGNQRFINVEIVHTHDYDSFARSMNNYADYAATQLQYYNLKPDSAENDGRGTVWTHAAISNFLGGTDHADPHQYLRSHNYSYAELYDLIYEKYLIKTKQVAPWGTTSTKPSQPSKPSGGTNNKLTVSANRGVAQIKPTNNGLYTTVYDSKGHKTDQVQKTLSVTKTATLGNNKFYLVEDYNSGKKYGWVKQGDVVYNTAKAPVKVNQTYNVKAGSTLYTVPWGTPKQVASKVSGTGNQTFKATKQQQIDKATYLYGTVNGKSGWISKYYLTTASKPSNPTKPSTNNQLTVTNNSGVAQINAKNSGLYTTVYDTKGKTTNQIQRTLSVTKAATLGDKKFYLVGDYNTGTNYGWVKQDEVIYNTAKSPVKINQTYNVKPGVKLHTVPWGTYNQVAGTVSGKGDQTFKATKQQQIDKATYLYGTVNGKSGWISKYYLTAPSKVQALSTQSTPAPKQVKPSTQTVNQIAQVKANNSGIRASVYDKTAKSGTKYANRTFLINKQRTQGNNTYVLLQDGTSNTPLGWVNINDVTTQNIGKQTQSIGKYSVKPTNNGLYSIAWGTKNQQLLAPNTLANQAFNASKAVYVGKDLYLYGTVNNRTGWIAAKDLIQNSTDAQSTPYNYTFVINNSKSYFYMDPTKANRYSLKPYYEQTFTVIKQKNINGVKWYYGQLLDGKYVWIKSTDLVKEKIKYAYTGMTLNNAINIQSRLKYKPQVQNEPLKWSNANYSQIKNAMDTKRLANDSSLKYQFLRLDQPQYLSAQALNKLLKGKGVLENQGAAFSQAARKYGLNEIYLISHALVETGNGTSQLAKGGDVSKGKFTTKTGHKYHNVFGIGAFDNNALVDGIKYAKNAGWTSVSKAIIGGAKFIGNSYVKAGQNTLYKMRWNPANPGTHQYATDINWANVNAQVLKQFYDKIGEVGKYFEIPTYK
- binding [1]: no binding
- binding [2]: binds
